Publication PMC7819943, “Rice protein-binding microarrays: a tool to detect cis-acting elements near promoter regions in rice”
This is one part of the list.

Each sequence was assayed against T1, OsSMF1 (Oryza sativa, UniProt Q6ZLB0 1-436) (assay: protein-binding microarray (RPBM); PBS, 2% BSA, 51.3 ng/ul salmon testes DNA, 50 uM zinc acetate, 200 nM TF, 25 C, 1 h; high values mean tight binding). Settings: protein: recombinant; tags: N-terminal polyhistidine and DsRed monomer fusion (pET32a); chain copies: 2; label: CyDye5-dUTP incorporated in the synthesized complementary strand; 3' TTTTT single-stranded linker to array surface; dsDNA, one strand shown.
T1 sequence: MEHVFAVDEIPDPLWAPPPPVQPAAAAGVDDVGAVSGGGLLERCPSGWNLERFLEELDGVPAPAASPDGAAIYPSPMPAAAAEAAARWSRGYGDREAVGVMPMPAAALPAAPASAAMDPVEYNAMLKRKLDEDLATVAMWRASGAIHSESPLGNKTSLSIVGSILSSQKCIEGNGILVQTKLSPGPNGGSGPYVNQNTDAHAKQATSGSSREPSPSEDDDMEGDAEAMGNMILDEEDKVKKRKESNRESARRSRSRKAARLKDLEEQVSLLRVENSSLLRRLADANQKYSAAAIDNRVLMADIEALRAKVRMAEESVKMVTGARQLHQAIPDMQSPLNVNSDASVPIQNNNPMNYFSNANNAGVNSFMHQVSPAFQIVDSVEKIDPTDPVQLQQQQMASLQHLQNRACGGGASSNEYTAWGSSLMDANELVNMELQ
Outline: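 Transcription factors, each fused N-terminally to a polyhistidine tag and DsRed, were expressed in E. coli BL21-CodonPlus and purified on Ni–NTA. A custom Agilent array was made double-stranded by primer extension with Cy5-dUTP and blocked with 2% BSA. It was incubated with 200 nM protein in PBS, 2% BSA, salmon testes DNA and 50 µM zinc acetate at 25 °C for 1 h, then washed. The binding signal is per-feature fluorescence intensity (arbitrary units) read on an Axon 4000B scanner.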
In the case of “GGGGCTAAAATTTTAGTCCATGTCACATCGGATGTTTGACCGGAGTCACCTAGTGCAG”, the binding signal is reported as 3400 fluorescence intensity (a.u.). For “AATTGTGCTGTGGAGTTGTGATGTGGATTTGGGGTTCAATCGGAGTCACCTAGTGCAG”, the binding signal was 5440 fluorescence intensity (a.u.). For “AAGAACAACCCAGCGTCGACTAATCCACTACACACCACGTCGGAGTCACCTAGTGCAG”, the binding signal was 3540 fluorescence intensity (a.u.). For “GATTAGTCCACCATGGACCGTGTGTGCACGTGGAGAAGGACGGAGTCACCTAGTGCAG”, the binding signal was 3740 fluorescence intensity (a.u.). In the case of “TTAAATGTTGGTCGAAAAGTCAAATGGCGTCATACATTAACGGAGTCACCTAGTGCAG”, the binding signal is reported as 4900 fluorescence intensity (a.u.). In the case of “TAGGATGCCACGTCATCTCTCCCTTCCCCTCTCTCTCTCCCGGAGTCACCTAGTGCAG”, the binding signal is reported as 27000 fluorescence intensity (a.u.). “AGGGGAGGGATGTTTGACGCCTTTGATAATATTTCAAGTACGGAGTCACCTAGTGCAG” was tested, and the binding signal was 3280 fluorescence intensity (a.u.). “CGCAACTAATCTTCGTCCTCTTCCCAGACAGCCTTGTTGTCGGAGTCACCTAGTGCAG” was tested, and the binding signal was 3140 fluorescence intensity (a.u.). “GTCGTGGCAACTGGCAGTGTCGGCTGGTGACGGCGGCGGACGGAGTCACCTAGTGCAG” was tested, and the binding signal was 3440 fluorescence intensity (a.u.). In the case of “CCCTCAATAATTAGCGGCTCAGCCGTGTCACCACTAGGGTCGGAGTCACCTAGTGCAG”, the binding signal is reported as 6150 fluorescence intensity (a.u.). In the case of “ACCCCACTAGCGAGCTCCTCCCCGCGCGTGGACGGCCGGTCGGAGTCACCTAGTGCAG”, the binding signal is reported as 3300 fluorescence intensity (a.u.). For “GGGGTGATGTGCTAGGTAGGGACACGGCGGCTATAGGTGCCGGAGTCACCTAGTGCAG”, the binding signal was 6190 fluorescence intensity (a.u.). In the case of “TAGGTTTTCGGGCCGGCCCATATTTTCTTAGGTGACAATGCGGAGTCACCTAGTGCAG”, the binding signal is reported as 3240 fluorescence intensity (a.u.). With “AGTGTCATATATATATATATATATATATATTAGTCTTTCACGGAGTCACCTAGTGCAG” the binding signal was 3540 fluorescence intensity (a.u.). With “AGACCTCGCCACATCACCCATGCACGCATGGATGACGACACGGAGTCACCTAGTGCAG” the binding signal was 10500 fluorescence intensity (a.u.). With “GACGCGGCGCAGTGCAACCAACAAACCGGGGCGGGCGGGGCGGAGTCACCTAGTGCAG” the binding signal was 5240 fluorescence intensity (a.u.). In the case of “CGCGCCAGCCGCCACCGCCGCCGCCGCACCCGCCACCCATCGGAGTCACCTAGTGCAG”, the binding signal is reported as 3220 fluorescence intensity (a.u.). In the case of “TTTCTATTTGTCGACTAGGATGCCACATCAATCAAAACAACGGAGTCACCTAGTGCAG”, the binding signal is reported as 4680 fluorescence intensity (a.u.). “GTTCGCCGTGGATTTCTTTTCTTGCGTCAGTGATACTGATCGGAGTCACCTAGTGCAG” was tested, and the binding signal was 5040 fluorescence intensity (a.u.). With “TATATCTAGTTTGCTCAGACCTACTGCTATTTCTTTCTGACGGAGTCACCTAGTGCAG” the binding signal was 41200 fluorescence intensity (a.u.). “CTGGGTGTGGGTGTGGGTCTGGGTCTGGGTGGAAGAGGAACGGAGTCACCTAGTGCAG” was tested, and the binding signal was 3420 fluorescence intensity (a.u.). “GAATCTGAAACTACCTCTGTGCATAGGCCATCTCATCCTCCGGAGTCACCTAGTGCAG” was tested, and the binding signal was 4430 fluorescence intensity (a.u.). With “CGCCGCGTTGGTCGGCACGTCACACAAACACACACGTGCGCGGAGTCACCTAGTGCAG” the binding signal was 7150 fluorescence intensity (a.u.). With “CCACCTCGACGGCTGGCTGGCTGGCTCCACGTCGGACCCCCGGAGTCACCTAGTGCAG” the binding signal was 12700 fluorescence intensity (a.u.). “CATGGATGAACAAGATGACATCAAGATCAAGTCCTCCAAGCGGAGTCACCTAGTGCAG” was tested, and the binding signal was 21800 fluorescence intensity (a.u.). In the case of “CGAATGTGTTAGGCCCACCAACCATACTGGGCCCTAGCCCCGGAGTCACCTAGTGCAG”, the binding signal is reported as 23300 fluorescence intensity (a.u.). With “TCTTTCTTTCTTTCTTTCTTGTGCGTCATCTCTATCACCGCGGAGTCACCTAGTGCAG” the binding signal was 10700 fluorescence intensity (a.u.). With “TACAGATCGATGCGACACTCTGACACGTTACGCTCTCTCTCGGAGTCACCTAGTGCAG” the binding signal was 6440 fluorescence intensity (a.u.). In the case of “TTTGATGGTGGTTTTGGCTGACGTGGCACCTACATGGCATCGGAGTCACCTAGTGCAG”, the binding signal is reported as 42900 fluorescence intensity (a.u.). In the case of “GGAGTTCTACGGCTGACAAGGAAGCCCACGTACATGTAGCCGGAGTCACCTAGTGCAG”, the binding signal is reported as 4430 fluorescence intensity (a.u.). With “CTCAAACTTGTTCGACTGTGTCATCCCGGTCCCTAAACTTCGGAGTCACCTAGTGCAG” the binding signal was 4940 fluorescence intensity (a.u.). For “GCCCAGCCCACACGGGGTAGCCCGACCGGCACGTGTCGGCCGGAGTCACCTAGTGCAG”, the binding signal was 3520 fluorescence intensity (a.u.). With “CCACGGCGAAAAGCTGCCAGGTGGGCCCACGGTCCCGCGGCGGAGTCACCTAGTGCAG” the binding signal was 36200 fluorescence intensity (a.u.). For “CTCTCTTCTCTTCTCCACGTCATCATTTAGCCGATTTATACGGAGTCACCTAGTGCAG”, the binding signal was 20600 fluorescence intensity (a.u.). For “CGCCACGGGTTTTGCCTGCCGCAGGCGGTGGAATCGCGTGCGGAGTCACCTAGTGCAG”, the binding signal was 3430 fluorescence intensity (a.u.). For “GCGTTCGGTTGTTGGTGTTGGGAACTAAATCCGTCACGCACGGAGTCACCTAGTGCAG”, the binding signal was 3560 fluorescence intensity (a.u.). “ATTTAGATCGAATCGAATCGAATCCCACGCGGCGCGGAGCCGGAGTCACCTAGTGCAG” was tested, and the binding signal was 4290 fluorescence intensity (a.u.). “GTTTAGGAAGCCTGGCAGCGACCGCGGTAGGGACTCGTCGCGGAGTCACCTAGTGCAG” was tested, and the binding signal was 4390 fluorescence intensity (a.u.). “TCCCAACCCCTCCAAAAGAACATTCCCAACTCACCTCCTTCGGAGTCACCTAGTGCAG” was tested, and the binding signal was 3140 fluorescence intensity (a.u.). With “ACAGGGGATGAAATATAGAATTAAAGCCACTCCTAAAGCCCGGAGTCACCTAGTGCAG” the binding signal was 3190 fluorescence intensity (a.u.). In the case of “CTCGGATGGGCGTCGAGCGGCGGAGCTTGCACCAGAGTTCCGGAGTCACCTAGTGCAG”, the binding signal is reported as 27600 fluorescence intensity (a.u.). In the case of “AAGAGCCAGAGCCCGCGCATGGGGAGCGTCATCCTCGGCGCGGAGTCACCTAGTGCAG”, the binding signal is reported as 3220 fluorescence intensity (a.u.).
